No constants are given. Whether binding was seen depends on the method and setting. Some entries that bind do so weakly or less than the wild type.
Molecular target: SHP-1 phosphatase (UniProt P29350)
Test: immunoprecipitation with anti-SHP-1 antibodies, Western blot with anti-myc antibody (FIG. 4C)

By UniProt entry, the sequences of proteins in these tests, tags left out. Residues count along the entry.
UniProt P29350: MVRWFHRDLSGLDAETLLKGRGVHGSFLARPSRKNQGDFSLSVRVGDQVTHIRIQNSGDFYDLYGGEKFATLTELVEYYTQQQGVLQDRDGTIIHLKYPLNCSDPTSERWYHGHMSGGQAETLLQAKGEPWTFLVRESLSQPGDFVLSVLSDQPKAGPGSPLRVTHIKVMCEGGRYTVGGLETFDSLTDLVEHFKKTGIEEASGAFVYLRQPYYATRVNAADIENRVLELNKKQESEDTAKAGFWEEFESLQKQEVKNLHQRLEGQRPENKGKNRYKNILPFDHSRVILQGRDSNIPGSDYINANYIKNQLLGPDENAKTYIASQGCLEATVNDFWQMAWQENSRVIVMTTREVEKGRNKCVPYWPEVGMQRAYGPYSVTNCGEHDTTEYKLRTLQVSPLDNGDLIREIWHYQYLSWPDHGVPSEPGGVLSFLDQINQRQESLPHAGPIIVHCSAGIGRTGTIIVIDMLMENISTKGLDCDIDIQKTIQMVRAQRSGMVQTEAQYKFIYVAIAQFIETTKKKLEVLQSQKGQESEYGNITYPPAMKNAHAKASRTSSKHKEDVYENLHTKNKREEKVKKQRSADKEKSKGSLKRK
UniProt Q8NHJ6, residues 22-448: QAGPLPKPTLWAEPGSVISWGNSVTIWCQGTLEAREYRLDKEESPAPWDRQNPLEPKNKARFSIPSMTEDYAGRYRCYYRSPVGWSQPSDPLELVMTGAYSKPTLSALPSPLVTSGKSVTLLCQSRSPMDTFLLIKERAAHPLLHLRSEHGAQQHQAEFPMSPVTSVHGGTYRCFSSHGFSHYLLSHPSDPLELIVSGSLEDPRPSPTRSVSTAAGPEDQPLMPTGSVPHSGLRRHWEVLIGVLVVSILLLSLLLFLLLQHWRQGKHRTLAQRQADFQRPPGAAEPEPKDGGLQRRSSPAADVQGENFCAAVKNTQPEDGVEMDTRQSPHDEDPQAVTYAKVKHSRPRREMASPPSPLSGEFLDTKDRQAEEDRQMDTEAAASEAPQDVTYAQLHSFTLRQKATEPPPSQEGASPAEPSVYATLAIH

binding: binds
Substance: full-length human ILT3 over-expressed in KG1 cells (KG1.ILT3) (from UniProt Q8NHJ6 22-448) (receptor)

From patent publication US20090274685A1
